In paper PMC8384837:
Where a chain is given by its changes, count along the chain named. This is one part of the list. For part of these data: At the low end of the ranking the order means little. For part of these data: The exact form of the protein is not confirmed.

Columns and labels:
Conditions in all cases: yeast three-hybrid, YBZ-1, SC-Leu-His + 0.5 mM 3-AT, 4 days
[1] = biological target: T1, PUM1 PUF domain R1-QFR R2-VFQ R7-NPG S863Q + R864F + Q867R + N899V + Y900F + S1079N + N1080P + E1083G (UniProt Q14671)
T1 sequence: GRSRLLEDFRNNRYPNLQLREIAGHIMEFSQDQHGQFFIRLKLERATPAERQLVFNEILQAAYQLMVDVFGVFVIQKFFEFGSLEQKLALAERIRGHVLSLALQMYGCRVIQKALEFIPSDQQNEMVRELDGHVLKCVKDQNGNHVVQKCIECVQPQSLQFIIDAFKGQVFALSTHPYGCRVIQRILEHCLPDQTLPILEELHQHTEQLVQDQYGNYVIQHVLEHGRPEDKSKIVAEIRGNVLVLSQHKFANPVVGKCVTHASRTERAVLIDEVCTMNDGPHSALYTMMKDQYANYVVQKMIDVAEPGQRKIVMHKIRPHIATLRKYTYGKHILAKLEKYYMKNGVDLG

[2] = biological target: T2, PUM1 PUF domain R3-THE R4-TFR C935T + R936H + Q939E + N971T + H972F + Q975R (UniProt Q14671)
T2 sequence: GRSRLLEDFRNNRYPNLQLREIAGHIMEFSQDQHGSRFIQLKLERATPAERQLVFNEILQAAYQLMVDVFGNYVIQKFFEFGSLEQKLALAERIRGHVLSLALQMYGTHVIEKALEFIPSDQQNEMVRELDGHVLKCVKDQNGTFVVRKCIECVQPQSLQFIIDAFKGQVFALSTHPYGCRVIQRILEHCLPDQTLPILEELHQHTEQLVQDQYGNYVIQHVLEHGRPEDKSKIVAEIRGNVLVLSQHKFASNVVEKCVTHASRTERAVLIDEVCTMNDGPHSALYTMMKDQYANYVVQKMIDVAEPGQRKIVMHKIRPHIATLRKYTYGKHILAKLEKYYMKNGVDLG

[3] = biological target: T3, PUM1 PUF domain R5-PHQ R6-SWD C1007P + R1008H + N1043S + Y1044W + Q1047D (UniProt Q14671)
T3 sequence: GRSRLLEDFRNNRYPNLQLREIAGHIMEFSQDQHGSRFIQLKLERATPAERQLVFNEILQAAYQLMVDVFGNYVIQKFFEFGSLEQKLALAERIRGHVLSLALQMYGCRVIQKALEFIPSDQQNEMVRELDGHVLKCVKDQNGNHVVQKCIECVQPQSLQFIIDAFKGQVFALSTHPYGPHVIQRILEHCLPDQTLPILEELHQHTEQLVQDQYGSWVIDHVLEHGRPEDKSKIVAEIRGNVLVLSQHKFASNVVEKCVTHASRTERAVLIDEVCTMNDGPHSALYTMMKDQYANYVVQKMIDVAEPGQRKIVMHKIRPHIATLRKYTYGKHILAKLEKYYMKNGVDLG

[4] = biological target: T4, PUM1 PUF domain R6-SWD R7-NPG N1043S + Y1044W + Q1047D + S1079N + N1080P + E1083G (UniProt Q14671)
T4 sequence: T3 sequence with P180C, H181R, S252N, N253P, E256G

[5] = biological target: T5, PUM1 PUF domain R6-SWD R7-NPG N1043S + Y1044W + Q1047D + S1079N + N1080P + E1083G (Homo sapiens) (UniProt Q14671)
T5 sequence: T3 sequence with P180C, H181R, S252N, N253P, E256G

| Sequence | binding signal (log2 enrichment (interaction score)) [1] | binding signal (log2 enrichment (interaction score)) [2] | binding signal (log2 enrichment (interaction score)) [3] | binding signal (log2 enrichment (interaction score)) [4] | binding signal (log2 enrichment (interaction score)) [5] |
| --- | --- | --- | --- | --- | --- |
| GGCUAGAACUAGUGGAUCCCCCGGCGCCCGGCGGCUCGAGCCCGGGUAAGUGUAUGAAGUCUGCAUGCCGCCGGGCGCCAUGCCUGCAGGUCGACUCUAGAAAACAUG | -6.28 | -5.72 | < -8.02 | -2.08 | – |
| GGCUAGAACUAGUGGAUCCCCCGGCGCCCGGCGGCUCGAGCCCGGGUAAGCGUAAAGUGUCUGCAUGCCGCCGGGCGCCAUGCCUGCAGGUCGACUCUAGAAAACAUG | -6.92 | -6.6 | -7.27 | – | – |
| GGCUAGAACUAGUGGAUCCCCCGGCGCCCGGCGGCUCGAGCCCGGGUAAGAUGAAGUCGUCUGCAUGCCGCCGGGCGCCAUGCCUGCAGGUCGACUCUAGAAAACAUG | < -5.79 | -6.94 | -8.09 | – | -0.44 |
| GGCUAGAACUAGUGGAUCCCCCGGCGCCCGGCGGCUCGAGCCCGGGUAAGCGGAAAAAGUCUGCAUGCCGCCGGGCGCCAUGCCUGCAGGUCGACUCUAGAAAACAUG | -5.1 | -6.67 | – | – | -1.47 |
| GGCUAGAACUAGUGGAUCCCCCGGCGCCCGGCGGCUCGAGCCCGGGUAAGUCUAAGUCGUCUGCAUGCCGCCGGGCGCCAUGCCUGCAGGUCGACUCUAGAAAACAUG | -5.66 | < -6.27 | -8.31 | – | – |
| GGCUAGAACUAGUGGAUCCCCCGGCGCCCGGCGGCUCGAGCCCGGGUAAGUGGAAAGAGUCUGCAUGCCGCCGGGCGCCAUGCCUGCAGGUCGACUCUAGAAAACAUG | < -6.97 | -7.79 | -6.13 | – | – |
| GGCUAGAACUAGUGGAUCCCCCGGCGCCCGGCGGCUCGAGCCCGGGUAAGUAUAGACAGUCUGCAUGCCGCCGGGCGCCAUGCCUGCAGGUCGACUCUAGAAAACAUG | < -5.81 | -6.72 | < -7.15 | – | -1.03 |
| GGCUAGAACUAGUGGAUCCCCCGGCGCCCGGCGGCUCGAGCCCGGGUAAGCAUAAGUAGUCUGCAUGCCGCCGGGCGCCAUGCCUGCAGGUCGACUCUAGAAAACAUG | -4.29 | -6.84 | < -7.85 | – | – |
| GGCUAGAACUAGUGGAUCCCCCGGCGCCCGGCGGCUCGAGCCCGGGUAAGGAUAAAUAGUCUGCAUGCCGCCGGGCGCCAUGCCUGCAGGUCGACUCUAGAAAACAUG | -5.65 | < -7.12 | < -7.04 | – | – |
| GGCUAGAACUAGUGGAUCCCCCGGCGCCCGGCGGCUCGAGCCCGGGUAAGCUGUAGUAGUCUGCAUGCCGCCGGGCGCCAUGCCUGCAGGUCGACUCUAGAAAACAUG | -5.63 | -7.1 | < -7.25 | – | -1.28 |
| GGCUAGAACUAGUGGAUCCCCCGGCGCCCGGCGGCUCGAGCCCGGGUAAGUGGAGAGCGUCUGCAUGCCGCCGGGCGCCAUGCCUGCAGGUCGACUCUAGAAAACAUG | < -6.53 | -5.85 | -7.98 | – | – |
| GGCUAGAACUAGUGGAUCCCCCGGCGCCCGGCGGCUCGAGCCCGGGUAAGUGGCAAUUGUCUGCAUGCCGCCGGGCGCCAUGCCUGCAGGUCGACUCUAGAAAACAUG | -6.79 | < -7.09 | -7.8 | – | – |
| GGCUAGAACUAGUGGAUCCCCCGGCGCCCGGCGGCUCGAGCCCGGGUAAGUGCAAAACGUCUGCAUGCCGCCGGGCGCCAUGCCUGCAGGUCGACUCUAGAAAACAUG | -6.46 | -5.83 | -8.48 | – | – |
| GGCUAGAACUAGUGGAUCCCCCGGCGCCCGGCGGCUCGAGCCCGGGUAAGAGGAAGUAGUCUGCAUGCCGCCGGGCGCCAUGCCUGCAGGUCGACUCUAGAAAACAUG | -4.37 | < -6.89 | -7.77 | < -2.96 | – |
| GGCUAGAACUAGUGGAUCCCCCGGCGCCCGGCGGCUCGAGCCCGGGUAAGUAGGAGUCGUCUGCAUGCCGCCGGGCGCCAUGCCUGCAGGUCGACUCUAGAAAACAUG | -5.63 | < -7.21 | -7.99 | – | – |
| GGCUAGAACUAGUGGAUCCCCCGGCGCCCGGCGGCUCGAGCCCGGGUAAGAAGACAUGGUCUGCAUGCCGCCGGGCGCCAUGCCUGCAGGUCGACUCUAGAAAACAUG | -5.79 | -7.25 | < -7.19 | – | – |
| GGCUAGAACUAGUGGAUCCCCCGGCGCCCGGCGGCUCGAGCCCGGGUAAGAUGUAGUAGUCUGCAUGCCGCCGGGCGCCAUGCCUGCAGGUCGACUCUAGAAAACAUG | -5.81 | < -6.85 | -7.18 | – | – |
| GGCUAGAACUAGUGGAUCCCCCGGCGCCCGGCGGCUCGAGCCCGGGUAAGUCGAGAUAGUCUGCAUGCCGCCGGGCGCCAUGCCUGCAGGUCGACUCUAGAAAACAUG | -5.75 | -6.77 | -6.62 | – | -0.57 |
| GGCUAGAACUAGUGGAUCCCCCGGCGCCCGGCGGCUCGAGCCCGGGUAAGUAUAAGUGGUCUGCAUGCCGCCGGGCGCCAUGCCUGCAGGUCGACUCUAGAAAACAUG | -5.86 | < -6.78 | – | – | -0.76 |

2 records drawn at random from those above, as already listed:

| Sequence | binding signal (log2 enrichment (interaction score)) [1] | binding signal (log2 enrichment (interaction score)) [2] | binding signal (log2 enrichment (interaction score)) [3] | binding signal (log2 enrichment (interaction score)) [4] | binding signal (log2 enrichment (interaction score)) [5] |
| --- | --- | --- | --- | --- | --- |
| GGCUAGAACUAGUGGAUCCCCCGGCGCCCGGCGGCUCGAGCCCGGGUAAGUCGAGAUAGUCUGCAUGCCGCCGGGCGCCAUGCCUGCAGGUCGACUCUAGAAAACAUG | -5.75 | -6.77 | -6.62 | – | -0.57 |
| GGCUAGAACUAGUGGAUCCCCCGGCGCCCGGCGGCUCGAGCCCGGGUAAGCUGUAGUAGUCUGCAUGCCGCCGGGCGCCAUGCCUGCAGGUCGACUCUAGAAAACAUG | -5.63 | -7.1 | < -7.25 | – | -1.28 |
